Some of the results follow. These are further read-outs of the screen, such as a control signal, another cell line or another target. No call is given for them. Compounds called inactive in the main read-out are mostly missing here. Words in brackets tell the shape of the fitted curve; partial curves, single points and poor fits give uncertain potencies.
Experiment: qHTS Assay for Lipid Storage Modulators in Drosophila S3 Cells;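 for cell number change: cells counted by Cell Tracker Red CMTPX staining in the red channel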
Details: BODIPY lipid droplet fluorescence, 18-24 h; for cell number change: measured here: cell count max response, cells fed with added oleic acid
In short: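 Laser-scanning cytometry quantifies lipid droplet accumulation (500–530 nm total intensity; droplet/cell object ratio) in oleic acid-fed (400 uM added) Drosophila S3 cells treated with a concentration series. 20 uM Triacsin C defined 100% inhibition.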

[1] = measured here: cell number channel AC50, cells fed with added oleic acid
[2] = measured here: lipid fluorescence (Fed channel) AC50, cells fed with added oleic acid

Row | Structure (SMILES) | AC50 [1] | cell number change [%] | AC50 [2]
1 | CC(=O)C(Sc1ncnc2sc3c(c12)CCCC3)C(C)=O | 0.0731 µM [rising, full curve, poor fit] |  | 
2 | COc1ccc(C(=O)Nc2cc(Cl)ccc2OC(=O)c2ccc(OC)cc2)cc1 |  | -29.3 | 32.6 µM [falling, single point]
3 | O=C(NCCCn1ccnc1)c1cccc(S(=O)(=O)N2CCCCCC2)c1 | 2.91 µM [rising, full curve] | 123 | 2.59 µM [rising, partial curve]
4 | C/C(=C\c1ccco1)C1C(C#N)=C(N)Oc2n[nH]c(-c3ccc(C)cc3)c21 (stereo not drawn) | 18.4 µM [falling, partial curve] | -57 | 29.1 µM [falling, single point]
5 | CC(=O)Nc1ccc(NC(=O)CSc2nnnn2-c2ccc3c(c2)OCCO3)cc1 |  | -26 | 
6 | O=C(CSc1nc2ccccc2[nH]1)Nc1cc(C(F)(F)F)ccc1N1CCOCC1 |  | -18.2 | 0.366 µM [rising, partial curve]
7 | COc1ccc(CN(C)C(=O)c2cnc(C)cn2)c(OC)c1OC |  | 21.5 | 23.1 µM [rising, single point]
8 | CCC(C)NC(=O)C1CCN(C(=O)COc2ccc3c4c(c(=O)oc3c2C)CCCC4)CC1 (stereo not drawn) | 29.1 µM [rising, single point] | 34 | 
9 | CC12CCCCC1N(O)C(=O)C(=O)N2O (stereo not drawn) | 29.1 µM [rising, single point] | 69.5 | 6.51 µM [falling, single point]
10 | COc1ccccc1N(C)S(=O)(=O)c1ccc(C(=O)NCc2ccc3c(c2)OCO3)cc1 |  |  | 29.1 µM [rising, single point]
11 | Cn1nc(C(C)(C)C)cc1C(=O)NCc1ccc2c(c1)OCO2 | 5.17 µM [falling, full curve] | -38.1 | 
12 | CCOc1ccc(NC(=O)CCN2CCN(c3ccccc3OC)CC2)cc1 |  | 10.4 | 2.06 µM [rising, partial curve]
13 | OCC1N=C(c2ccccn2)OC1c1ccccc1 (stereo not drawn) | 0.0731 µM [falling, full curve, poor fit] |  | 18.4 µM [rising, single point]
14 | CS(=O)(=O)c1sc2nc(-c3cccs3)cc(-c3ccccc3)c2c1N |  | 5.36 | 1.3 µM [rising, partial curve]
15 | COc1ccc(N(CC(=O)Nc2cc(C)on2)S(=O)(=O)c2ccc(Cl)cc2)cc1 | 23.1 µM [rising, partial curve] | 79.1 | 
16 | Cc1nc(NC(C)C)c2cnn(CCc3ccccc3)c2n1 | 0.411 µM [rising, full curve] |  | 
17 | COC(=O)C1=C(N)Oc2cc(C)n(Cc3cccnc3)c(=O)c2C1c1cc(OC)ccc1OC (stereo not drawn) |  | -9.73 | 0.651 µM [falling, full curve, poor fit]
18 | Cc1ccc(S(=O)(=O)N2CCN(C(=O)c3ccco3)CC2)cc1C |  | 25.7 | 9.2 µM [rising, partial curve, poor fit]
19 | Cc1cc(NC(=O)C2CCCN2C(=O)Nc2cccc(Cl)c2)ccc1-n1cnnn1 (stereo not drawn) |  | 20.5 | 18.4 µM [rising, single point]
20 | CN1C(=O)/C(=C2\SC(N3CCCCCC3)=NC2=O)c2ccccc21 | 1.84 µM [rising, partial curve, poor fit] |  | 1.84 µM [rising, partial curve]

Row | Structure (SMILES) | AC50 [1] | cell number change [%] | AC50 [2]
21 | COc1cccc(NC(=O)/C=C/c2ccco2)c1 |  | 18.8 | 32.6 µM [rising, single point]
22 | COc1cc(NS(=O)(=O)c2ccc(NC(=S)NC(=O)c3ccc(F)cc3)cc2)nc(OC)n1 |  | 21 | 
23 | Cc1ccc(C(=O)OCC(=O)NCc2cccs2)c(C)c1 | 29.1 µM [rising, single point] | 145 | 
24 | CCC(C)(C)C1CCC2(CC1)NC(=O)N(CC(=O)N(C)CCOc1ccc(Cl)cc1)C2=O (stereo not drawn) |  | 21.6 | 16.4 µM [rising, single point]
25 | COc1ccc(/C=C/C(=O)Nc2cccc(C(C)=O)c2)cc1 |  | 13.1 | 25.9 µM [rising, partial curve]
26 | COc1ccc(C(CNc2ncnc3sc(C)c(C)c23)N(C)C)cc1 (stereo not drawn) |  | -14.1 | 
27 | CC(C)NCCOCCOc1ccc(Cl)cc1Br |  | 23.6 | 3.26 µM [falling, partial curve, poor fit]
28 | CC(=O)c1ccc(NC(=O)C(C)Sc2nnc(C3CCCCC3)o2)cc1 (stereo not drawn) |  | 29.5 | 6.51 µM [rising, single point]
29 | C#CCSc1nnnn1-c1ccc(OCC)cc1 |  | -2.5 | 20.6 µM [rising, partial curve, poor fit]
30 | O=C(O)C1CCN(C(=O)COc2ccc3c(c2)oc(=O)c2ccccc23)CC1 |  | 11.4 | 1.46 µM [rising, full curve]
31 | COc1ccc(-c2cc(C(N)=O)nc(N3CCCCCC3)n2)cc1 |  | -11.1 | 5.8 µM [rising, full curve]
32 | COC(=O)c1ccc(NC(=O)CCN2C(=O)C3C4CCC(C4)C3C2=O)cc1 (stereo not drawn) | 0.092 µM [rising, partial curve] | 3.47 | 
33 | CCc1cccc(NC(=O)Cc2ccc([N+](=O)[O-])cc2)c1 |  |  | 16.4 µM [rising, single point]
34 | COc1ccc(Cl)cc1NC(=O)CN(C)C(=O)c1cc(C)oc1C |  | -10.9 | 20.6 µM [falling, partial curve]
35 | OC[C@@H](O)[C@H](O)C(/C=N/Nc1ccccc1)=N\Nc1ccccc1 |  |  | 6.51 µM [rising, single point]
36 | CCCCOC(=O)c1ccc(NC(=O)CSc2nnnn2C)cc1 |  | -0.465 | 
37 | Cc1ccccc1OCc1nc2c3c(ncn2n1)-c1ccccc1CC31CCCC1 | 8.2 µM [rising, partial curve] | 51.8 | 6.51 µM [rising, single point]
38 | COC(=O)CSc1nnc(-c2cccc(NC(=O)c3ccc(C)cc3)c2)n1C |  | -17.1 | 0.116 µM [rising, single point]
39 | O=C(c1cc(S(=O)(=O)N2CCOCC2)c(Cl)cc1Cl)N1CCCCC1 |  | 1.5 | 6.51 µM [rising, single point]

Arranged by length of the SMILES (smallest number first): some entries from above.
Row | Structure (SMILES) | AC50 [1] | cell number change [%] | AC50 [2]
13 | OCC1N=C(c2ccccn2)OC1c1ccccc1 (stereo not drawn) | 0.0731 µM [falling, full curve, poor fit] |  | 18.4 µM [rising, single point]
34 | COc1ccc(Cl)cc1NC(=O)CN(C)C(=O)c1cc(C)oc1C |  | -10.9 | 20.6 µM [falling, partial curve]
5 | CC(=O)Nc1ccc(NC(=O)CSc2nnnn2-c2ccc3c(c2)OCCO3)cc1 |  | -26 | 
